These are yes or no findings as the source states them, for the method shown. For some of these results: In cells and extracts the contact can be indirect. Some entries that bind do so weakly or less than the wild type. Tags and fused reporters may be left off the sequences shown.
How the values were obtained:
[1] = target: T1, Top3/GST-Rmi1 complex (S. cerevisiae) (UniProt P13099+Q02685); assay: pull-down; Top3/GST-Rmi1 (0.8 μM) on magnetic glutathione beads, His-Mlh1/Strep-Mlh2 0.8 μM, without or with Mer3-Strep (0.2 or 0.8 μM); 25 mM HEPES pH 7.5, 5% glycerol, 100 mM NaCl, 1 mM TCEP, 0.1% Tween-20; stained gel; both purified
T1 sequence 1: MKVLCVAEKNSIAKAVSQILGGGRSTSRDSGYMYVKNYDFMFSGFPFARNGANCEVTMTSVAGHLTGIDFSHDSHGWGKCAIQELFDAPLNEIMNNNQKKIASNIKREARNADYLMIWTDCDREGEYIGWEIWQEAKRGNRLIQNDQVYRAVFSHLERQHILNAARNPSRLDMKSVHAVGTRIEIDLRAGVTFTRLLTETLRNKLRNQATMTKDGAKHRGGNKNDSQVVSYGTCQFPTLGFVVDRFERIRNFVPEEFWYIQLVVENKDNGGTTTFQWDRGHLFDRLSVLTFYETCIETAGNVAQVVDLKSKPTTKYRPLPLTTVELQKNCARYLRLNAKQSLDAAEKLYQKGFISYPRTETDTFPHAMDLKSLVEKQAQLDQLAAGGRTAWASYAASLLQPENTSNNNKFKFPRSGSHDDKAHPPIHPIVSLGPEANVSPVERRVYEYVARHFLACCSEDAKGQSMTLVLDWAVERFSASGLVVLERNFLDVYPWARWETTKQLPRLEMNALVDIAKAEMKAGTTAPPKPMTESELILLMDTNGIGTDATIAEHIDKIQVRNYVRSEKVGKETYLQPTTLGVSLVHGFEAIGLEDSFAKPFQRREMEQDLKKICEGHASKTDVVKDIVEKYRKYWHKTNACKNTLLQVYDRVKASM
T1 sequence 2: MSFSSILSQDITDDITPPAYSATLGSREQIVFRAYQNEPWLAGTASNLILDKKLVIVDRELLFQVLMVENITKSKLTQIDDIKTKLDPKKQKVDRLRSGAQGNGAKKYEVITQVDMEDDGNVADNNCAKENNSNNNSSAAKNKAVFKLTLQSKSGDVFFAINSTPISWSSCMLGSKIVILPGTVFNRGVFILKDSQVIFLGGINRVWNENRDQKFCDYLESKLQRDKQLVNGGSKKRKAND

By UniProt entry, the sequences of proteins in these tests, tags left out. Where a name states a change or a piece, a line headed by the entry shows the natural chain unless it says otherwise.
UniProt P38920: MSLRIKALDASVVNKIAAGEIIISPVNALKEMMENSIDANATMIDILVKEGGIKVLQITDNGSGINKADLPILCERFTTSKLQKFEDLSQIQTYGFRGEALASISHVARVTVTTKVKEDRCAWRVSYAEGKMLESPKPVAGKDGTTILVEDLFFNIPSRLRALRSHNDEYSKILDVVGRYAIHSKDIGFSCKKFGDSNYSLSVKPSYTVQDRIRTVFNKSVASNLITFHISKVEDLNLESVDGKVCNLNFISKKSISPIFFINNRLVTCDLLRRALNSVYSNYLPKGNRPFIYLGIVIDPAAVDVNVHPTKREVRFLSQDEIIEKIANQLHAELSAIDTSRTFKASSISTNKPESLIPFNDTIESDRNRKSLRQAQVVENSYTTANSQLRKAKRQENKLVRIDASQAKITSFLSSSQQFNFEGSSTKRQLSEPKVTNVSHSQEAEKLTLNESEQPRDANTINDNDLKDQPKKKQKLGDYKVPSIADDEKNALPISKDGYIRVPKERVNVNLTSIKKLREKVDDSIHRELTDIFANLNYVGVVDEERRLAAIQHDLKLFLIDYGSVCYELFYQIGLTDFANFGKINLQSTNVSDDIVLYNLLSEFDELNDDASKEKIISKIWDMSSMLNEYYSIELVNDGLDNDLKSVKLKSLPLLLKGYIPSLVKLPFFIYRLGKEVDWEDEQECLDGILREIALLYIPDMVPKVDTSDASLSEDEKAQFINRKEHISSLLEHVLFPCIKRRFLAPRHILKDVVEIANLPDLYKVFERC
UniProt P51979: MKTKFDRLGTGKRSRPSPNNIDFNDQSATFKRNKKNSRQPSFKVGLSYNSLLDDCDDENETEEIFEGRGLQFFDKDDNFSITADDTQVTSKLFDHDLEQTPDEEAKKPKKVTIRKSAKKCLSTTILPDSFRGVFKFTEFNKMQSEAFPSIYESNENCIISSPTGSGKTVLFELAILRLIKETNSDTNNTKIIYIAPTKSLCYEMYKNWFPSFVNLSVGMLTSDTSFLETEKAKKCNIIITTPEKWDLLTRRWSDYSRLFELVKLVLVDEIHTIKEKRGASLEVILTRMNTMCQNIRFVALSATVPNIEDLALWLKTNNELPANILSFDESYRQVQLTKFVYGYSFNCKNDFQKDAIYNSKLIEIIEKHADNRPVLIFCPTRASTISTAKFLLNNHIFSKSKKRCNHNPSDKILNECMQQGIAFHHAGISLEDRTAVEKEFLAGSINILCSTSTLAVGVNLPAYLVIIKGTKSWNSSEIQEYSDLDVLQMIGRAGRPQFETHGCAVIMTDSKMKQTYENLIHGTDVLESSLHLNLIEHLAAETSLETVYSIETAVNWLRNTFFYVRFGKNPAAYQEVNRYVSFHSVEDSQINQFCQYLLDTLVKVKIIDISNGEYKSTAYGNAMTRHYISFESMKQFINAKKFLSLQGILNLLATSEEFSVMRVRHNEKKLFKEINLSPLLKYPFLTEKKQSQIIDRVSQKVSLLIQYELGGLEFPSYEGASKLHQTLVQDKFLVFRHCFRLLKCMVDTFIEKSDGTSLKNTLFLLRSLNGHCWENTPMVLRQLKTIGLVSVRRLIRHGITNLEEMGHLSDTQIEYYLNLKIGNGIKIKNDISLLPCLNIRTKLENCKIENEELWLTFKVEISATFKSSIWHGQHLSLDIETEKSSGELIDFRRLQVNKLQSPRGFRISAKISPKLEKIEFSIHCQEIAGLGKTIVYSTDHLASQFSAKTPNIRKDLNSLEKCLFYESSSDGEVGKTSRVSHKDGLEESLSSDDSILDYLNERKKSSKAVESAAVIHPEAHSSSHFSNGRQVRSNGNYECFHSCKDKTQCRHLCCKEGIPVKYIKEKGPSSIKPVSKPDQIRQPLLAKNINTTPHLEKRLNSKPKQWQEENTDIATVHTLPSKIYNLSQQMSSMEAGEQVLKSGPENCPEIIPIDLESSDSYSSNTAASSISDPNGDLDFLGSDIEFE

[2] = target: T2, Rmi1 (yeast two-hybrid fusion) (S. cerevisiae) (UniProt Q02685); assay: two-hybrid; pGAD-C1 and pGBDU-C1 fusions in reporter strain yWL365; growth on -Leu/-Ura/-His with or without 1 mM 3-aminotriazole, 30°C, 4–6 days
T2 sequence: T1 sequence 2

[3] = target: T3, Top3 (yeast two-hybrid fusion) (S. cerevisiae) (UniProt P13099); assay: as above
T3 sequence: T1 sequence 1

[4] = target: T4, Top3-3HA (C-terminally HA-tagged Top3 in SK1 yeast) (S. cerevisiae) (UniProt P13099); assay: co-IP; anti-HA immunoprecipitation from SK1 meiotic lysates (6 h in sporulation medium), anti-Myc blot; 50 mM Tris–HCl pH 7.5, 150 mM NaCl, 1% Nonidet P-40, 1 mM EDTA
T4 sequence: T1 sequence 1

His-Mlh1/Strep-Mlh2 complex (from UniProt P38920 1-769; Q07980 1-695)
binding [1]: binds weakly

Mer3 (yeast two-hybrid fusion) (from UniProt P51979 1-1187) (enzyme)
binding [2]: binds | binding [3]: binds

Mer3-9Myc (C-terminally Myc-tagged Mer3 in SK1 yeast) (from UniProt P51979 1-1187) (enzyme)
binding [4]: binds
